From the supplement of paper PMC10626197
Counter-ions that a name gives are not always drawn. Several reference drugs read as weak here; read low effects with care.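 Drug pairs were tested on MCF7 breast cancer cells in a dose grid. On every plate, solvent-only DMSO wells served as the untreated reference, and a doxorubicin series served as the total-kill control. No hit threshold applies to the viability readings.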

Test system: MCF7
Assay: cell viability relative to DMSO control (raw); higher = more viable cells
Conditions: exposure time 72 h
Protocol: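 MCF7 cells, 1000 cells/well in 384-well plates, treated with 6x6 dose matrices of drug pairs (1:3 serial dilutions, DMSO as lowest dose) for 72 h at 37 °C. Viability read by CellTiter-Glo luminescence, 3 biological replicates. Normalised viability sets 0% at the highest doxorubicin dose and 100% at the 0,0 µM control per combination.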

O=NN(CCCl)C(=O)NCCCl [Carmustine] + CN(C)CCCN1c2ccccc2CCc2ccc(Cl)cc21 [Clomipramine (hydrochloride)]
cell viability [%]
Conditions	drug 2 concentration 0 µM	drug 2 concentration 0.123457 µM	drug 2 concentration 0.37037 µM	drug 2 concentration 1.11111 µM	drug 2 concentration 3.33333 µM	drug 2 concentration 10 µM
drug 1 concentration 0.925926 µM	104	96.1	100	86.9	100	78.6
drug 1 concentration 2.77778 µM	97.1	91.9	99.4	89.6	93.9	73.1
drug 1 concentration 8.33333 µM	93	92.8	102	87.5	90.6	78.4
drug 1 concentration 25 µM	76.5	74.1	76.8	74.4	67.9	57.6
drug 1 concentration 75 µM	53.2	43.8	45.9	49.1	45.3	32.3

CC(=O)O[C@H]1CC[C@@]2(C)C(=CC[C@@H]3[C@@H]2CC[C@]2(C)C(c4cccnc4)=CC[C@@H]32)C1 [Abiraterone acetate] + Nc1ccccc1NC(=O)c1ccc(CNC(=O)OCc2cccnc2)cc1 [Entinostat]
cell viability [%]
Conditions	drug 2 concentration 0 µM	drug 2 concentration 0.0740741 µM	drug 2 concentration 0.222222 µM	drug 2 concentration 0.666667 µM	drug 2 concentration 2 µM	drug 2 concentration 6 µM
drug 1 concentration 0.246914 µM	109	106	105	92	69.6	31.3
drug 1 concentration 0.740741 µM	123	129	121	110	71.6	27.5
drug 1 concentration 2.22222 µM	108	114	104	95.2	72.4	30.2
drug 1 concentration 6.66667 µM	102	99.1	102	85.7	53	18.7
drug 1 concentration 20 µM	67.3	65.4	56.7	45.9	30.5	18.9

C#CCC(Cc1cnc2nc(N)nc(N)c2n1)c1ccc(C(=O)N[C@@H](CCC(=O)O)C(=O)O)cc1 (stereo not given in full) [Pralatrexate] + C[C@@H](NCCCc1cccc(C(F)(F)F)c1)c1cccc2ccccc12 [Cinacalcet (hydrochloride)]
cell viability [%]
Conditions	drug 2 concentration 0 µM	drug 2 concentration 0.123457 µM	drug 2 concentration 0.37037 µM	drug 2 concentration 1.11111 µM	drug 2 concentration 3.33333 µM	drug 2 concentration 10 µM
drug 1 concentration 0.000493827 µM	76.9	83.3	86.4	79.9	51.2	8.17
drug 1 concentration 0.00148148 µM	88.1	77	95.5	81.1	58.9	9.54
drug 1 concentration 0.00444444 µM	78.4	87.9	86.4	79	55.9	7
drug 1 concentration 0.0133333 µM	94.9	92.1	97.8	92.7	72.5	11.5
drug 1 concentration 0.04 µM	105	101	102	93.2	63.2	9.7

COc1cc2/c(=N/c3ccc(Br)cc3F)nc[nH]c2cc1OCC1CCN(C)CC1 [Vandetanib] + CCOC(=O)[C@H](CCc1ccccc1)N[C@@H](C)C(=O)N1[C@H](C(=O)O)C[C@@H]2CCC[C@@H]21 [Ramipril]
cell viability [%]
Conditions	drug 2 concentration 0 µM	drug 2 concentration 0.0617284 µM	drug 2 concentration 0.185185 µM	drug 2 concentration 0.555556 µM	drug 2 concentration 1.66667 µM	drug 2 concentration 5 µM
drug 1 concentration 0.0617284 µM	93.2	97.9	100	104	103	91.5
drug 1 concentration 0.185185 µM	105	105	96.3	105.67	103	107
drug 1 concentration 0.555556 µM	86.2	89.5	91	88.8	88.2	81.6
drug 1 concentration 1.66667 µM	94.1	92.3	91.4	88.7	91.1	80.1
drug 1 concentration 5 µM	82	92.6	88.5	91.9	76.2	69.8

C/C(=C\c1csc(C)n1)[C@@H]1C[C@@H]2O[C@]2(C)CCC[C@H](C)[C@H](O)[C@@H](C)C(=O)C(C)(C)[C@@H](O)CC(=O)N1 [ixabepilone] + N#CC1(c2ccc(NC(=O)c3cccnc3NCc3ccncc3)cc2)CCCC1 [Apatinib]
cell viability [%]
Conditions	drug 2 concentration 0 µM	drug 2 concentration 0.0617284 µM	drug 2 concentration 0.185185 µM	drug 2 concentration 0.555556 µM	drug 2 concentration 1.66667 µM	drug 2 concentration 5 µM
drug 1 concentration 0.00185185 µM	105	102	108	116	116	110
drug 1 concentration 0.00555556 µM	114	108	113	110	114	98
drug 1 concentration 0.0166667 µM	105	98.4	107	120	109	102
drug 1 concentration 0.05 µM	112.6	116	127	119	115	113
drug 1 concentration 0.15 µM	121	117	120	113	116	114

CCCS(=O)(=O)Nc1ccc(F)c(C(=O)c2c[nH]c3ncc(-c4ccc(Cl)cc4)cc23)c1F [Vemurafenib] + CN1CCN(CCCN2c3ccccc3Sc3ccc(C(F)(F)F)cc32)CC1 [Trifluoperazine 2HCl]
cell viability [%]
Conditions	drug 2 concentration 0 µM	drug 2 concentration 0.185185 µM	drug 2 concentration 0.555556 µM	drug 2 concentration 1.66667 µM	drug 2 concentration 5 µM	drug 2 concentration 15 µM
drug 1 concentration 0.154321 µM	97.6	96.6	102	101	89.3	17.6
drug 1 concentration 0.462963 µM	106	116	105	104	110	22.9
drug 1 concentration 1.38889 µM	98.8	101	99.8	103	98.9	22.3
drug 1 concentration 4.16667 µM	113	116	107	101	102	21.8
drug 1 concentration 12.5 µM	98	97.5	97.4	100	78.1	1.49

CCCS(=O)(=O)Nc1ccc(F)c(C(=O)c2c[nH]c3ncc(-c4ccc(Cl)cc4)cc23)c1F [Vemurafenib] + CN(C)C(=O)c1cc2cnc(Nc3ccc(N4CCNCC4)cn3)nc2n1C1CCCC1 [Ribociclib]
cell viability [%]
Conditions	drug 2 concentration 0 µM	drug 2 concentration 0.123457 µM	drug 2 concentration 0.37037 µM	drug 2 concentration 1.11111 µM	drug 2 concentration 3.33333 µM	drug 2 concentration 10 µM
drug 1 concentration 0.154321 µM	86.1	91.5	91.3	85.2	83.1	77.5
drug 1 concentration 0.462963 µM	95.5	90.3	90.6	89.4	89	81.7
drug 1 concentration 1.38889 µM	93.5	91.1	87.5	88	84.7	79.1
drug 1 concentration 4.16667 µM	96.2	92.4	88.7	85.8	82	78.6
drug 1 concentration 12.5 µM	94.4	96.9	90.6	86.3	79.7	67.4

CC[C@]1(O)C[C@H]2CN(CCc3c([nH]c4ccccc34)[C@@](C(=O)OC)(c3cc4c(cc3OC)N(C=O)[C@H]3[C@@](O)(C(=O)OC)[C@H](OC(C)=O)[C@]5(CC)C=CCN6CC[C@]43[C@@H]65)C2)C1 [Vincristine] + CN1CCN(CCCN2c3ccccc3Sc3ccc(C(F)(F)F)cc32)CC1 [Trifluoperazine 2HCl]
cell viability [%]
Conditions	drug 2 concentration 0 µM	drug 2 concentration 0.185185 µM	drug 2 concentration 0.555556 µM	drug 2 concentration 1.66667 µM	drug 2 concentration 5 µM	drug 2 concentration 15 µM
drug 1 concentration 0.0037037 µM	99.9	103	101	103	93.2	13.6
drug 1 concentration 0.0111111 µM	115	109	111	113	81.9	11
drug 1 concentration 0.0333333 µM	101	99.3	97	87	69.8	9.83
drug 1 concentration 0.1 µM	92	90.4	86.6	80.6	67	7.19
drug 1 concentration 0.3 µM	93.4	87.8	83.5	81.8	71.8	5.69

CC[C@]1(O)C[C@H]2CN(CCc3c([nH]c4ccccc34)[C@@](C(=O)OC)(c3cc4c(cc3OC)N(C=O)[C@H]3[C@@](O)(C(=O)OC)[C@H](OC(C)=O)[C@]5(CC)C=CCN6CC[C@]43[C@@H]65)C2)C1 [Vincristine] + CCCNC(=O)c1cn2ncnc(Nc3cc(C(=O)NC4CC4)ccc3C)c2c1C [BMS-582949 (hydrochloride)]
cell viability [%]
Conditions	drug 2 concentration 0 µM	drug 2 concentration 0.37037 µM	drug 2 concentration 1.11111 µM	drug 2 concentration 3.33333 µM	drug 2 concentration 10 µM	drug 2 concentration 30 µM
drug 1 concentration 0.0037037 µM	106	98.8	105	96.6	95.3	92.6
drug 1 concentration 0.0111111 µM	117	116	116	113	105	93.1
drug 1 concentration 0.0333333 µM	117.5	111	115	115	103	99.8
drug 1 concentration 0.1 µM	99.8	102	100.9	98.2	93.7	86.52
drug 1 concentration 0.3 µM	97.5	103	102	98.3	103	91.1

O=C1c2c(O)ccc(O)c2C(=O)c2c(NCCNCCO)ccc(NCCNCCO)c21 [Mitoxantrone] + Cn1cc(-c2ccc3nnc(C(F)(F)c4ccc5ncccc5c4)n3n2)cn1 [JNJ-38877605]
cell viability [%]
Conditions	drug 2 concentration 0 µM	drug 2 concentration 0.0617284 µM	drug 2 concentration 0.185185 µM	drug 2 concentration 0.555556 µM	drug 2 concentration 1.66667 µM	drug 2 concentration 5 µM
drug 1 concentration 0.0123457 µM	75.5	78.8	71.1	74.6	76	75.53
drug 1 concentration 0.037037 µM	74.1	74.7	73.5	78.1	74.1	74.7
drug 1 concentration 0.111111 µM	71.3	68.3	71.7	69.9	71.5	66.4
drug 1 concentration 0.333333 µM	57.1	59.2	58.6	63.7	68.1	61.5
drug 1 concentration 1 µM	36.4	37	38.8	35.6	35.9	40.5

C#Cc1cccc(Nc2ncnc3cc(OCCOC)c(OCCOC)cc23)c1 [Erlotinib] + CCCNC(=O)c1cn2ncnc(Nc3cc(C(=O)NC4CC4)ccc3C)c2c1C [BMS-582949 (hydrochloride)]
cell viability [%]
Conditions	drug 2 concentration 0 µM	drug 2 concentration 0.37037 µM	drug 2 concentration 1.11111 µM	drug 2 concentration 3.33333 µM	drug 2 concentration 10 µM	drug 2 concentration 30 µM
drug 1 concentration 0.123457 µM	107	104	101	97	92.8	82.6
drug 1 concentration 0.37037 µM	108	111	112	119	99.4	89.7
drug 1 concentration 1.11111 µM	104	101	103	104	89.8	82.4
drug 1 concentration 3.33333 µM	106	103	104	101	97.9	87.3
drug 1 concentration 10 µM	81.2	85.4	87.5	86.4	81.2	71.4
